PubChem BioAssay AID1259308 | NCATS, 2017
This is an unselected part of about 59,000 reagents tested. Over the whole deposit, about 1,510 (2.6%) were called active. 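Calls use total luciferase alone and ignore viability, so some active siRNAs may act by altering cell number.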 Entries without a mark were called inactive. The numbers tell different reagents against one gene apart. Not all columns of the deposit are shown.

- Assay: 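Genes whose loss raises luciferase production in HEK293 cells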 (primary screen)
- Cell system: human HEK293 embryonic kidney cells stably expressing firefly luciferase (HEK-CMV-Luc2-Hygro)
- Reagent: single siRNA against human genes, 0.8 pmol siRNA per well
- Time to read-out: 72 h
- Detection: 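Luciferase light (ONE-Glo) measured on one replicate plate set and viability (CellTiter-Glo) on the other, scaled to a negative control siRNA, with robust z-scores and luciferase per cell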
- Reading the numbers: total luciferase, z-score and total luciferase, % of control: higher = more reporter protein produced
- Rule for the call: 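Active when the median/MAD z-score for overall luciferase is greater than 3; a gene was taken forward for validation with new siRNAs if at least two of its three siRNAs passed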
- Calls: active = raised luciferase; inactive = no rise

Knock-down of ZFAND6 (zinc finger AN1-type containing 6) #1 came out at: total luciferase, z-score -2.1; total luciferase, % of control 40.1.
For ZFAND6 (zinc finger AN1-type containing 6) #2, the values are total luciferase, z-score 2.41; total luciferase, % of control 130.
With knock-down of ZFAND6 (zinc finger AN1-type containing 6) #3, the record shows total luciferase, z-score 2.17; total luciferase, % of control 125.
With knock-down of LRRN2 (leucine rich repeat neuronal 2) #1, the record shows total luciferase, z-score -0.251; total luciferase, % of control 76.9.
LRRN2 (leucine rich repeat neuronal 2) #2 showed total luciferase, z-score 0.215; total luciferase, % of control 86.2.
Depletion of LRRN2 (leucine rich repeat neuronal 2) #3 gave: total luciferase, z-score -0.754; total luciferase, % of control 66.9.
INPP5F (inositol polyphosphate-5-phosphatase F) #1 scored total luciferase, z-score -0.487; total luciferase, % of control 72.2.
For INPP5F (inositol polyphosphate-5-phosphatase F) #2, the entry reads total luciferase, z-score 1.68; total luciferase, % of control 115.
With knock-down of INPP5F (inositol polyphosphate-5-phosphatase F) #3, the screen gave total luciferase, z-score -0.841; total luciferase, % of control 65.2.
Silencing of MANBA (mannosidase beta) #1 came out at: total luciferase, z-score 0.121; total luciferase, % of control 84.3.
Depletion of MANBA (mannosidase beta) #2 gave: total luciferase, z-score 0.216; total luciferase, % of control 86.2.
Depletion of MANBA (mannosidase beta) #3 gave: total luciferase, z-score -0.408; total luciferase, % of control 73.8.
Silencing of KANSL3 (KAT8 regulatory NSL complex subunit 3) #1 came out at: total luciferase, z-score 0.814; total luciferase, % of control 98.1.
With knock-down of KANSL3 (KAT8 regulatory NSL complex subunit 3) #2, the screen gave total luciferase, z-score 0.475; total luciferase, % of control 91.3.
Knock-down of KANSL3 (KAT8 regulatory NSL complex subunit 3) #3 resulted in: total luciferase, z-score -1.82; total luciferase, % of control 45.8.
Against CEP164 (centrosomal protein 164) #1, the values are total luciferase, z-score -1.02; total luciferase, % of control 61.7.
Against CEP164 (centrosomal protein 164) #2 the deposit lists total luciferase, z-score 0.968; total luciferase, % of control 101.
After knock-down of CEP164 (centrosomal protein 164) #3 the results were total luciferase, z-score 1.09; total luciferase, % of control 104.
SAC3D1 (SAC3 domain containing 1) #1 gave total luciferase, z-score 0.0708; total luciferase, % of control 83.3.
Against SAC3D1 (SAC3 domain containing 1) #2 the deposit lists total luciferase, z-score 0.284; total luciferase, % of control 87.5.
Knock-down of SAC3D1 (SAC3 domain containing 1) #3 resulted in: total luciferase, z-score 1.8; total luciferase, % of control 118.
With knock-down of DDX12P (DEAD/H-box helicase 12, pseudogene) #1, the record shows total luciferase, z-score 0.425; total luciferase, % of control 90.3.
With knock-down of DDX12P (DEAD/H-box helicase 12, pseudogene) #2, the screen gave total luciferase, z-score 1.16; total luciferase, % of control 105.
Against DDX12P (DEAD/H-box helicase 12, pseudogene) #3, the entry reads total luciferase, z-score 1.53; total luciferase, % of control 112.
E2F4 (E2F transcription factor 4) #1 showed total luciferase, z-score 0.0241; total luciferase, % of control 82.4.
Against E2F4 (E2F transcription factor 4) #2, the values are total luciferase, z-score 1.14; total luciferase, % of control 105.
For E2F4 (E2F transcription factor 4) #3, the values are total luciferase, z-score 0.303; total luciferase, % of control 87.9.
Silencing of ADAT2 (adenosine deaminase tRNA specific 2) #1 came out at: total luciferase, z-score -0.0675; total luciferase, % of control 80.5.
For ADAT2 (adenosine deaminase tRNA specific 2) #2, the values are total luciferase, z-score -0.865; total luciferase, % of control 64.7.
Against ADAT2 (adenosine deaminase tRNA specific 2) #3 the deposit lists total luciferase, z-score -0.782; total luciferase, % of control 66.3.
With knock-down of CRH (corticotropin releasing hormone) #1, the record shows total luciferase, z-score -0.38; total luciferase, % of control 74.3.
After knock-down of CRH (corticotropin releasing hormone) #2, the record shows total luciferase, z-score -0.0104; total luciferase, % of control 81.7.
For CRH (corticotropin releasing hormone) #3, the entry reads total luciferase, z-score -0.77; total luciferase, % of control 66.6.

Part of the list above, reduced to “total luciferase, z-score”.
SAC3D1 (SAC3 domain containing 1) #2 = 0.284
SAC3D1 (SAC3 domain containing 1) #3 = 1.8
DDX12P (DEAD/H-box helicase 12, pseudogene) #1 = 0.425
DDX12P (DEAD/H-box helicase 12, pseudogene) #2 = 1.16
